Drawing on publication PMC5172368, this text covers binding for two substances.

Results are given in words; binding and its absence hold for the method and conditions named. In cells and extracts the contact can be indirect. Binding calls can cover weak binding; strength is not graded here.

Assay [1] concerns the target ORP2 HFD peptide (oocyst rupture protein 2, aa 7-156) with N-terminal poly-His tag (Plasmodium berghei). Briefly: pull-down; Ni-NTA agarose beads with cleared E. coli lysate co-expressing His-ORP2 and S-tagged ORP1; overnight at 4 °C; 500 mM NaCl, 150 mM Tris pH 8.0, 10% glycerol, 10 mM imidazole; washes with 300 mM NaCl; elution with 300 mM imidazole; western blot with antibodies against the tags. Background: Immunoblotting shows a protein as a band on a membrane.

The target of assay [2] is ORP1 HFD peptide (oocyst rupture protein 1, aa 750-872) with C-terminal S-tag (Plasmodium berghei). Kind of assay: co-IP; antibody against the S-tag on Protein G Sepharose beads incubated with cleared E. coli lysate containing both peptides; 300 mM NaCl, 50 mM Tris pH 7.4, 1% Triton X-100, 1 mM PMSF; His-ORP2 detected with anti-His-6 antibody on western blot.

For the substance “ORP1 HFD peptide (oocyst rupture protein 1, aa 750-872) with C-terminal S-tag (from UniProt A0A509AJ88) (domain or fragment)”, the binding result in assay [1] is reported as “binds”. As to “ORP2 HFD peptide (oocyst rupture protein 2, aa 7-156) with N-terminal poly-His tag (from UniProt A0A509AVP1) (domain or fragment)”, in assay [2], the binding entry is on record as “binds”.
